Results taken from PubChem BioAssay AID328 (DTP/NCI, 2004).
The list does not hold the whole screen: it is rich in T/C values a quarter to a half above the control, in often repeated tests (any T/C) and in doses without a T/C. Other doses and runs of a compound stand elsewhere. T/C: endpoint of the treated group in % of that of the vehicle group. Some doses have a count of surviving animals in place of a T/C: the source files T/C as zero there, which appears to mark a toxic dose or a test without result, not a measured value. Some doses without a T/C left all or most animals alive at the check, yet need not have been tolerated: survival well below the control is almost never listed, so the zero probably covers shortened survival too. Counts of survivors are from the toxicity check (mostly the fifth day) where no day follows; animals may have died later. Schedule codes are those of the source, read here as Q, the interval in days (D) or hours (H), X, the number of doses. Some doses were run more than once; the values are given in rising order. Where survival is the endpoint, this PubChem deposit counts one and a half times the control or more as active, and values a quarter to a half above the control carry no call in these data; other NCI protocols may use other cut-offs. Some T/C values are followed by the survivors on the day toxicity was checked, most often the fifth; without a count, all were alive then.

Tested on: BDF1 mice, P388 leukemia ip, median survival T/C
Experiment: NCI In Vivo Anticancer Drug Screen. Data for tumor model P388 Leukemia (intraperitoneal) in B6D2F1 (BDF1) mice
Settings: T/C endpoint: median survival time, higher T/C = longer survival
Outline: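 Each value expresses how treatment altered survival: treated-mouse outcome over vehicle-mouse outcome, both groups bearing the transplanted tumour.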

[1] = dose: 100.0 mg/kg/injection, schedule: Q04DX003 (ip), vehicle: saline
[2] = dose: 4.12 mg/kg/injection, schedule: Q01DX009 (ip), vehicle: saline
[3] = dose: 6.25 mg/kg/injection, schedule: Q01DX009 (ip), vehicle: saline
[4] = dose: 9.37 mg/kg/injection, schedule: Q01DX009 (ip), vehicle: saline
[5] = dose: 50.0 mg/kg/injection, schedule: Q01DX009 (ip), vehicle: saline
[6] = dose: 25.0 mg/kg/injection, schedule: Q01DX009 (ip), vehicle: saline
[7] = dose: 200.0 mg/kg/injection, schedule: Q04DX003 (ip), vehicle: saline
[8] = dose: 400.0 mg/kg/injection, schedule: Q04DX003 (ip), vehicle: saline
[9] = dose: 200.0 mg/kg/injection, schedule: Q04DX003 (ip), vehicle: saline with Tween-80

Q: For `CCOC(=O)/C(C)=C\c1c(C)[nH]c(=O)[nH]c1=O`, which survivor count [1] is on record?
A: The survivor count was 6 of 6.

Q: Which results are given for `COc1ccc(C(SCC(N)C(=O)O)(c2ccccc2)c2ccc(OC)cc2)cc1` (stereo not given)?
A: T/C (dose: 4.6 mg/kg/injection, schedule: Q01DX009 (ip), vehicle: Klucel (hydroxypropylcellulose) (HPC)): 128 % of control; T/C (dose: 16.0 mg/kg/injection, schedule: Q04DX003 (ip), vehicle: Klucel (hydroxypropylcellulose) (HPC)): 145 % of control; survivor count (dose: 50.0 mg/kg/injection, schedule: Q01DX009 (ip), vehicle: Klucel (hydroxypropylcellulose) (HPC)): 3 of 6; survivor count (dose: 100.0 mg/kg/injection, schedule: Q01DX009 (ip), vehicle: Klucel (hydroxypropylcellulose) (HPC)): 1 of 6; survivor count (dose: 150.0 mg/kg/injection, schedule: Q04DX003 (ip), vehicle: Klucel (hydroxypropylcellulose) (HPC)): 5 of 6; survivor count (dose: 225.0 mg/kg/injection, schedule: Q04DX003 (ip), vehicle: Klucel (hydroxypropylcellulose) (HPC)): 6 of 6; survivor count (dose: 335.0 mg/kg/injection, schedule: Q04DX003 (ip), vehicle: Klucel (hydroxypropylcellulose) (HPC)): 1 of 6

Q: How did the T/C (dose: 6.0 mg/kg/injection, schedule: Q04DX003 (ip), vehicle: saline with Tween-80) turn out when `CNC(=N)c1ccc(NC(=N)c2ccc(NC(=N)c3ccc(NC(=O)Nc4ccc(C#N)cc4)cc3)cc2)cc1` was run?
A: Its T/C is 126 % of control.

Q: And the T/C (dose: 9.0 mg/kg/injection, schedule: Q04DX003 (ip), vehicle: saline with Tween-80)?
A: The T/C was 145 and 146 % of control.

Q: And the T/C (dose: 10.5 mg/kg/injection, schedule: Q01DX009 (ip), vehicle: saline with Tween-80)?
A: Its T/C is 142 % of control.

Q: What about the T/C (dose: 22.0 mg/kg/injection, schedule: Q04DX003 (ip), vehicle: saline with Tween-80) of the same compound?
A: The T/C was 145 % of control.

Q: And the survivor count (dose: 75.0 mg/kg/injection, schedule: Q01DX009 (ip), vehicle: saline with Tween-80)?
A: The survivor count was 6 of 6.

Q: And the survivor count (dose: 112.0 mg/kg/injection, schedule: Q04DX003 (ip), vehicle: saline with Tween-80)?
A: The survivor count was 2 of 6.

Q: And the survivor count (dose: 150.0 mg/kg/injection, schedule: Q01DX009 (ip), vehicle: saline with Tween-80)?
A: Its survivor count is 0 of 6.

Q: How did the T/C [2] turn out when `c1nc(SC2=NCCN2)c2[nH]cnc2n1` was run?
A: Its T/C is 140 % of control.

Q: What about the T/C [3] of the same compound?
A: Its T/C is 127 % of control.

Q: What about the T/C [4] of the same compound?
A: Its T/C is 145 % of control.

Q: What about the T/C (dose: 18.0 mg/kg/injection, schedule: Q01DX009 (ip), vehicle: saline) of the same compound?
A: Its T/C is 135 % of control.

Q: What about the survivor count (dose: 25.0 mg/kg/injection, schedule: Q04DX003 (ip), vehicle: saline) of the same compound?
A: The survivor count was 3 of 6.

Q: And the T/C (dose: 28.0 mg/kg/injection, schedule: Q01DX009 (ip), vehicle: saline)?
A: The T/C was 140 % of control.

Q: What about the T/C (dose: 40.0 mg/kg/injection, schedule: Q01DX009 (ip), vehicle: saline) of the same compound?
A: Its T/C is 140 % of control [5 of 6 alive].

Q: What about the T/C [5] of the same compound?
A: Its T/C is 126 and 138 % of control.

Q: And the survivor count [5]?
A: The survivor count was 3 of 6.

Q: And the survivor count (dose: 50.0 mg/kg/injection, schedule: Q04DX003 (ip), vehicle: saline)?
A: The survivor count was 3 of 6.

Q: What about the survivor count (dose: 75.0 mg/kg/injection, schedule: Q01DX009 (ip), vehicle: saline) of the same compound?
A: The survivor count was 0 of 6 and 3 of 6.

Q: How did the survivor count (dose: 200.0 mg/kg/injection, schedule: Q04DX002 (ip), vehicle: Klucel (hydroxypropylcellulose) (HPC)) turn out when `C=C(C(=O)OC1C/C(C)=C/C(O)C/C(C)=C/C2OC(=O)C(=C)C21)C(C)O` (stereo not given) was run?
A: Its survivor count is 6 of 6.

Q: What about the survivor count (dose: 400.0 mg/kg/injection, schedule: Q04DX002 (ip), vehicle: Klucel (hydroxypropylcellulose) (HPC)) of the same compound?
A: The survivor count was 0 of 6.

Q: `CCOC(=O)C(NC=O)C(=O)OCC` was tested. Which survivor count [6] did it give?
A: Its survivor count is 6 of 6.

Q: Which T/C (dose: 9.0 mg/kg/injection, schedule: Q01DX009 (ip), vehicle: saline with Tween-80) does the source give for `O=c1c2cccc3cccc(c32)c2nc3ccccc3n12` here?
A: Its T/C is 125 % of control.

Q: What does the source list for `ClCCN(CCCl)CCOc1ccc(-c2nc3ccccc3[nH]2)cc1`?
A: T/C (dose: 6.25 mg/kg/injection, schedule: Q04DX002 (ip), vehicle: saline): 144 % of control; survivor count (dose: 25.0 mg/kg/injection, schedule: Q04DX002 (ip), vehicle: saline): 4 of 6

Q: `O=C(CN1CCCCC1)Nc1ccc(Br)cc1` was tested. Which survivor count (dose: 400.0 mg/kg/injection, schedule: Q01DX009 (ip), vehicle: saline with Tween-80) did it give?
A: Its survivor count is 2 of 6.

Q: How did the T/C (dose: 0.4 mg/kg/injection, schedule: Q01DX009 (ip), vehicle: water, evaluated on day 20) turn out when `O=C1/C(=N/O)Cc2ccccc21` was run?
A: Its T/C is 148 % of control.

Q: And the T/C (dose: 0.4 mg/kg/injection, schedule: Q01DX009 (ip), vehicle: water, evaluated on day 21)?
A: Its T/C is 134 % of control.

Q: And the T/C (dose: 0.8 mg/kg/injection, schedule: Q01DX009 (ip), vehicle: water)?
A: Its T/C is 125 % of control [5 of 6 alive].

Q: And the T/C (dose: 1.2 mg/kg/injection, schedule: Q01DX009 (ip), vehicle: water)?
A: The T/C was 125 % of control.

Q: What does the source list for `O=C(Nc1ccc(C2=NCCCN2)cc1)c1ccc(C(=O)Nc2ccc(C3=NCCCN3)cc2)cc1`?
A: T/C (dose: 5.8 mg/kg/injection, schedule: Q04DX003 (ip), vehicle: saline with Tween-80): 143 % of control; survivor count (dose: 50.0 mg/kg/injection, schedule: Q04DX003 (ip), vehicle: other): 5 of 8

Q: Which results are given for `COc1ccc(CC[N+]2=Cc3cc(OC)c(OC)cc3CC2)cc1OC`?
A: T/C [6]: 127 % of control; survivor count [1]: 6 of 6; survivor count [7]: 3 of 6; survivor count [8]: 1 of 6

Q: Which results are given for `Nc1nc2n[nH]nc2c(=O)[nH]1`?
A: T/C (dose: 25.0 mg/kg/injection, schedule: Q01DX010 (ip), vehicle: alkali diluted with saline): 135 % of control; T/C (dose: 100.0 mg/kg/injection, schedule: Q01DX010 (ip), vehicle: alkali diluted with saline): 136 % of control

Q: `CC1OC(OC2CC(O)(C(=O)CO)Cc3c(O)c4c(c(O)c32)C(=O)c2ccccc2C4=O)CC(N)C1O` (stereo not given) was tested. Which T/C (dose: 1000.0 micrograms/kg/injection, schedule: Q04DX003 (ip), vehicle: water) did it give?
A: Its T/C is 129 % of control.

Q: How did the survivor count (dose: 12.5 mg/kg/injection, schedule: Q04DX003 (ip), vehicle: saline with Tween-80) turn out when `C[N+](C)(C)c1ccc2c(c1)CCC/C2=N\N` was run?
A: The survivor count was 2 of 6.

Q: And the survivor count (dose: 25.0 mg/kg/injection, schedule: Q04DX003 (ip), vehicle: saline with Tween-80)?
A: The survivor count was 0 of 6.

Q: And the survivor count (dose: 100.0 mg/kg/injection, schedule: Q04DX003 (ip), vehicle: saline with Tween-80)?
A: The survivor count was 0 of 6.

Q: What about the survivor count [9] of the same compound?
A: The survivor count was 0 of 6.

Q: And the survivor count (dose: 400.0 mg/kg/injection, schedule: Q04DX003 (ip), vehicle: saline with Tween-80)?
A: Its survivor count is 0 of 6.

Q: How did the survivor count [9] turn out when `N/N=C1/CCN2CCCc3cccc1c32` was run?
A: The survivor count was 5 of 6.

Q: For `COC(=O)C1C2(C)CCc3cc(OC)ccc3C2=CC(=O)C1(C)C(=O)OC` (stereo not given), which survivor count (dose: 200.0 mg/kg/injection, schedule: Q04DX003 (sc), vehicle: steroid suspending solution) is on record?
A: Its survivor count is 6 of 6.

Q: `C[Si](C)(OC(=O)N(CCCl)CCCl)O[Si](C)(C)OC(=O)N(CCCl)CCCl` was tested. Which T/C (dose: 12.5 mg/kg/injection, schedule: Q01DX009 (ip), vehicle: saline with Tween-80) did it give?
A: The T/C was 147 % of control.

Q: How did the T/C (dose: 178.0 mg/kg/injection, schedule: Q01DX009 (ip), vehicle: saline) turn out when `C=C1C(=O)CCC1C(=O)O` (stereo not given) was run?
A: Its T/C is 129 % of control.

Q: And the T/C (dose: 200.0 mg/kg/injection, schedule: Q01DX009 (ip), vehicle: saline)?
A: The T/C was 136 and 140 % of control.

Q: What about the T/C (dose: 266.0 mg/kg/injection, schedule: Q01DX009 (ip), vehicle: saline) of the same compound?
A: The T/C was 136 % of control.

Q: And the T/C (dose: 600.0 mg/kg/injection, schedule: Q04DX003 (ip), vehicle: saline)?
A: The T/C was 140 % of control.

Q: What about the T/C (dose: 900.0 mg/kg/injection, schedule: Q04DX003 (ip), vehicle: saline) of the same compound?
A: The T/C was 146 % of control.

Q: What does the source list for `CCC(C)P(=O)(N1CC1C)N1CC1C` (stereo not given)?
A: survivor count [1]: 6 of 6; survivor count [7]: 0 of 6; survivor count [8]: 0 of 6

Q: For `CC[P+]1(c2ccccc2)CCCc2ccc3ccccc3c21` (stereo not given), which T/C [2] is on record?
A: Its T/C is 126 % of control.

Q: What about the T/C [3] of the same compound?
A: Its T/C is 125 and 142 % of control.

Q: What about the T/C [4] of the same compound?
A: Its T/C is 131 % of control.

Q: What about the T/C (dose: 13.8 mg/kg/injection, schedule: Q01DX009 (ip), vehicle: saline) of the same compound?
A: Its T/C is 140 % of control [5 of 6 alive].

Q: What about the T/C (dose: 21.0 mg/kg/injection, schedule: Q01DX009 (ip), vehicle: saline) of the same compound?
A: The T/C was 130 % of control.

Q: What about the survivor count (dose: 45.0 mg/kg/injection, schedule: Q01DX009 (ip), vehicle: saline) of the same compound?
A: Its survivor count is 0 of 6.

Q: And the survivor count (dose: 70.0 mg/kg/injection, schedule: Q01DX009 (ip), vehicle: saline)?
A: The survivor count was 0 of 6.

Q: How did the survivor count (dose: 335.0 mg/kg/injection, schedule: Q01DX009 (ip), vehicle: alcohol) turn out when `C/C(=C\Cl)CO` was run?
A: Its survivor count is 2 of 6.
